Test results from PubChem BioAssay AID2685 (National Center for Advancing Translational Sciences (NCATS), 2010).
The other results are listed elsewhere or left out. The main result of the screen is listed elsewhere. These columns were measured beside it and carry no call. Compounds called inactive in the main read-out are mostly missing here. The note in brackets gives the kind of curve behind each potency; many fits are weak.

Assay: qHTS Assay for Lipid Storage Modulators in Drosophila S3 Cells;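 as to cell number change: cells counted by Cell Tracker Red CMTPX staining in the red channel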
Conditions: BODIPY lipid droplet fluorescence, 18-24 h; for cell number change: measured here: cell count max response, cells fed with added oleic acid
Summary of the method: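 Drosophila S3 cells got compounds at several concentrations plus oleic acid (400 uM solution). Laser-scanning cytometry with 488 nm excitation read lipid droplets at 500-530 nm and cells at 575-640 nm. Percent activity was relative to 20 uM Triacsin C.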

[1] = measured here: cell number channel AC50, cells fed with added oleic acid
[2] = measured here: lipid fluorescence (Fed channel) AC50, cells fed with added oleic acid

SMILES	cell number change	AC50 [1]	AC50 [2]
COc1ccc(CNC(=O)CSc2nnc3c(n2)[nH]c2ccc(F)cc23)cc1	23.5%		
COc1ccc(OC)c(-c2nnc(SCC(=O)N3CCCc4ccccc43)o2)c1	-14.2%		
COc1cccc(C(=O)Nc2cccc(-c3nnc(-c4ccco4)o3)c2)c1	70.4%	5.17 µM [rising, full curve]	4.61 µM [falling, single point]
CCn1c(SCC(=O)Nc2oc(C)c3c(C)n[nH]c(=O)c23)nc2sc(C)c(C)c2c1=O		0.259 µM [rising, full curve]	
O=C(COC(=O)C1CC2C=CC1C2)Nc1cccc(S(=O)(=O)N2CCOCC2)c1 (stereo not given)	-19.7%		0.461 µM [falling, full curve, poor fit]
CN(C)c1ccc(C=C2C(=O)OC(C)(C(C)(C)C)OC2=O)cc1 (stereo not given)	11.3%		6.51 µM [falling, single point]
CCOC(=O)N1CCC(NC(=O)CCC(=O)N2CC(C)Oc3ccccc32)CC1 (stereo not given)	7.99%		10.3 µM [rising, single point]
S=c1[nH]nc(-c2ccco2)n1/N=C/c1ccccc1	-14.7%		29.1 µM [falling, single point]
Cc1cccc(N2CCN(C(=O)c3ccc(Cl)c(S(=O)(=O)NCc4ccco4)c3)CC2)c1C	-43.7%	0.92 µM [falling, full curve]	0.651 µM [falling, full curve]
COc1cc(C(=O)N(Cc2ccc(N(C)C)cc2)C2CCS(=O)(=O)C2)cc(OC)c1OC (stereo not given)	-8.64%		
Nn1c(COc2ccccc2)nnc1SC(F)F	-9.79%		0.82 µM [falling, full curve]
COc1cc(C(=O)OCC(=O)c2c[nH]c3ccccc23)ccc1OCC(=O)N1CCOCC1	-19.4%		23.1 µM [rising, single point]
Cc1ccccc1S(=O)(=O)N1[C@@H](c2ccccc2)C(C(=O)O)=CC[C@H]1c1ccc(Cl)cc1	-15.6%	1.46 µM [falling, partial curve]	29.1 µM [falling, single point]
COc1ccc(/C(N)=N/OC(=O)c2ccc(Br)o2)cc1	40%	23.1 µM [rising, single point]	
COc1ccccc1N(C(=O)c1ccco1)C(C(=O)NC1CCCC1)c1ccc(N2CCOCC2)cc1 (stereo not given)	3.85%		
COc1cc(/C=C/c2ccc3cccc(O)c3n2)cc(OC)c1OC	2.84%		
COc1ccc(N2CC(O)(c3ccc(F)cc3)[N+]3=C2CCCC3)cc1 (stereo not given)	-31.9%	7.31 µM [falling, partial curve]	6.51 µM [falling, partial curve]
CCCC[n+]1ccn(-c2nc3ccccc3nc2[N-]S(=O)(=O)c2ccccc2)c1	59.9%	14.6 µM [rising, partial curve, poor fit]	29.1 µM [rising, single point]
C=CCn1c(O)c(N=NC(=S)Nc2ccc(OC)cc2)c2ccccc21	-59.2%	29.1 µM [falling, single point]	29.1 µM [falling, single point]

One compound at a time, from the list above:
`Cc1cccc(N2CCN(C(=O)c3ccc(Cl)c(S(=O)(=O)NCc4ccco4)c3)CC2)c1C` reads cell number change: -43.7%; AC50 [1]: 0.92 µM [falling, full curve]; AC50 [2]: 0.651 µM [falling, full curve]
`COc1cc(C(=O)OCC(=O)c2c[nH]c3ccccc23)ccc1OCC(=O)N1CCOCC1` reads cell number change: -19.4%; AC50 [2]: 23.1 µM [rising, single point]

(cont.)

SMILES	cell number change	AC50 [1]	AC50 [2]
Cc1ccc2c(c1)cc(CN(Cc1ccc3c(c1)OCO3)C(=O)c1ccccc1)c1nnnn12	-27.5%		13 µM [falling, partial curve]
Cc1ccc(NC(=O)CNC(=O)c2cccs2)c(O)c1	2.77%		18.4 µM [falling, single point]
COc1ccccc1C(=O)NC(CCSC)C(=O)N1CCC(Cc2ccccc2)CC1 (stereo not given)	12.5%		
NC(=O)c1c(NC(=O)C2COc3ccccc3O2)sc2c1CCN(Cc1ccccc1)C2 (stereo not given)	14%	0.00517 µM [rising, full curve, poor fit]	0.00461 µM [rising, full curve, poor fit]
Cc1cccc(NC(=O)c2ccc(C(=O)c3ccccc3)cc2)n1	-13.9%		1.3 µM [falling, partial curve]
CC(=O)Cn1ncc(Br)c(Br)c1=O	-29%		5.8 µM [falling, partial curve]
S=C(N/N=C/c1ccc2c(c1)OCO2)NC1CC2CCC1C2 (stereo not given)	6.01%	6.51 µM [falling, single point]	6.51 µM [falling, single point]
O=C(CC1C(=O)NCCN1Cc1cccc(C(F)(F)F)c1)NC1CCOCC1 (stereo not given)	-6.36%		
CN1/C(=C\C(=O)c2cccc([N+](=O)[O-])c2)Sc2ccccc21			2.06 µM [falling, partial curve]
CCCc1cc(-c2nc(N)ncc2-c2csc(C)n2)c(O)cc1OC	-7.78%		
CCN1CCN(C(=O)c2cc3ccc(OC)cc3[nH]2)CC1	47.9%	2.91 µM [falling, single point]	29.1 µM [rising, single point]
CCN1CCN(c2ccc(NC(=O)c3ccc4c(c3)[nH]c(=O)n4Cc3ccc(F)cc3)cc2)CC1	2.71%		18.4 µM [rising, partial curve, poor fit]
CCCNCC1C(Oc2ccc(Cl)cc2Cl)C(=O)N1c1cccc(C)c1C (stereo not given)	-73.7%	23.1 µM [falling, single point]	29.1 µM [falling, single point]
CN(Cc1ccc(Cl)c(Cl)c1)C(=O)C1=CC=CN2CCS(=O)(=O)N=C12	6.33%		0.517 µM [falling, single point]
CSC1=N/C(=C\c2ccccc2)C(=O)N1C	3.74%		
CCn1cc(/C=N\NC(=O)c2cc(-c3ccccc3OC)nc3ccccc23)c(C)n1	33.6%	8.2 µM [rising, partial curve]	6.51 µM [rising, partial curve]
CSc1nc2[nH]c3c(c2c2nnnn12)CCCC3	23.4%	0.411 µM [rising, full curve, poor fit]	0.0326 µM [rising, full curve, poor fit]
COc1ccc(NC(=O)COc2ccc(/C=C/c3cc[n+](C)cc3)cc2OC)cc1	11.1%		0.58 µM [falling, single point]
